Paper PMC8780245
These are yes or no findings as the source states them, for the method shown. In cells and extracts the contact can be indirect. Some entries that bind do so weakly or less than the wild type.

Protein sequences, listed by entry. Tags and fused reporters are not part of them. Residues count along the entry.
UniProt Q9QUK6, residues 26-835: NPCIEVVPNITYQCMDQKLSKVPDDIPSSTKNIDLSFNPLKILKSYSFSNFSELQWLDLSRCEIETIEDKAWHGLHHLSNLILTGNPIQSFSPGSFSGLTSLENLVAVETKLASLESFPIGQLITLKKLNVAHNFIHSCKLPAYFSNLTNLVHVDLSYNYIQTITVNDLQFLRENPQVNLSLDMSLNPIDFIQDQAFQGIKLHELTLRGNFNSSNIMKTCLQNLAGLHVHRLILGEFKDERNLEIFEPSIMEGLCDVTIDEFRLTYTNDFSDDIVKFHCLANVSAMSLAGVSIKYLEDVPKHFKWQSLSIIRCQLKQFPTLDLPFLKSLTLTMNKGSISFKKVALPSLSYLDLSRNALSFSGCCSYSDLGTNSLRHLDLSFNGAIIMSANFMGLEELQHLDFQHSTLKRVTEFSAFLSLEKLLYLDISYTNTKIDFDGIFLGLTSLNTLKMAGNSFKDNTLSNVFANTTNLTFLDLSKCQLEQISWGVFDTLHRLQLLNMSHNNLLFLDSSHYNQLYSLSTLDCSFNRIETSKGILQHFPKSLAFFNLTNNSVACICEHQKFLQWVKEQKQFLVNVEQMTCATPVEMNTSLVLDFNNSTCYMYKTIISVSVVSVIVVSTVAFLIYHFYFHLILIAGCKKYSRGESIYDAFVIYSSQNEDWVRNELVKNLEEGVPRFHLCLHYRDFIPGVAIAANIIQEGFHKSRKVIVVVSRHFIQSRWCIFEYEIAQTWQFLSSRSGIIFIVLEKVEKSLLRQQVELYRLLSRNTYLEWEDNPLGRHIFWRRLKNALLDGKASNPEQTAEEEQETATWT
UniProt P68404: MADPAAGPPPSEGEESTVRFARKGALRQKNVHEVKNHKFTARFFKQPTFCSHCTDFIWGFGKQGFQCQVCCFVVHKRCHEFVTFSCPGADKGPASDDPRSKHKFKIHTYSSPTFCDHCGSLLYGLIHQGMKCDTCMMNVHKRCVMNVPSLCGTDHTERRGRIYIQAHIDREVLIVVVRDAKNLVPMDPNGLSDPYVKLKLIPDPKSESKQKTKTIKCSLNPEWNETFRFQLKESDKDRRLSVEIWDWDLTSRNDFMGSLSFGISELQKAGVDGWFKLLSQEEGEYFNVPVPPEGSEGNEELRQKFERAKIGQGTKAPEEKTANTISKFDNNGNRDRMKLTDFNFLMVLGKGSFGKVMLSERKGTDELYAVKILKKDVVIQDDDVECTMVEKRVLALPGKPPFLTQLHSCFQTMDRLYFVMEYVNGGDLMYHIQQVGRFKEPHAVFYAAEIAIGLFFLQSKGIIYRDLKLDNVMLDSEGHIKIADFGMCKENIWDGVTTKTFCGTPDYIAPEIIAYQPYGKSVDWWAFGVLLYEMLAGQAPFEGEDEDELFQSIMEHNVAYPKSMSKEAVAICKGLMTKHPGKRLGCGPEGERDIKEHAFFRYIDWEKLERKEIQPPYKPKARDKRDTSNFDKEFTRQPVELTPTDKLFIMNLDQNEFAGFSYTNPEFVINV
UniProt Q62151, residues 23-402: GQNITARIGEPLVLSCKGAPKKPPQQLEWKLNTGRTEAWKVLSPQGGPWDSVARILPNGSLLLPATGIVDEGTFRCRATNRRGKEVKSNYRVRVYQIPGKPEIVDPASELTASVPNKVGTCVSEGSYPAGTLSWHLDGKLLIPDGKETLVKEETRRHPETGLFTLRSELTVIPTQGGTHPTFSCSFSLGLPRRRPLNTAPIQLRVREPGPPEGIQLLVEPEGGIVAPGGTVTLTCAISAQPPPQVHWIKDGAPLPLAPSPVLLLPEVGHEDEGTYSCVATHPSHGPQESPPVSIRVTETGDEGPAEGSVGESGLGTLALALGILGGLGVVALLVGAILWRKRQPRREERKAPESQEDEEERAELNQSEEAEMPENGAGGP

What was measured:
[1] = molecular target: toll-like receptor 4 (mouse (endogenous in BMDCs)) (UniProt Q9QUK6); assay: co-IP; extracts from mouse BMDCs in lysis buffer (50 mmol/L Tris pH 7.5, 150 mmol/L NaCl, protease and phosphatase inhibitors), 500 μg; protein A:protein G beads with polyclonal TLR4 antibody or polyclonal phospho-PKCβ1 antibody (2 μg), 4 h at 4℃; western blot
[2] = molecular target: phospho-PKCβ1 (mouse (endogenous in BMDCs)) (UniProt P68404); assay: as above

Row | binding [1] | binding [2] | Substance
1 | binds |  | phospho-PKCβ1 (from UniProt P68404 1-671) (enzyme)
2 | binds | binds | receptor for advanced glycation end products (from UniProt Q62151 23-402)
